Experimental data reported in the supplement of paper PMC6078165.
The reference is the same well before dosing, and untreated signal decays as well.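 Fibroblast labels denote human fibroblasts, mainly primary ones from uterus (C12385, HUF), lung (H6013), bone (Hs27A), adrenal (HADF) and skin (WS1), plus mammary HMF and breast cancer-associated Hs343T. Cancer cells are basal-like or mesenchymal-like triple-negative breast cancer lines. A hit is a response shift exceeding 3x replicate standard deviation. The tissue of the other fibroblasts is not given here.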

Test system: MDAMB231
Assay: relative JC-1 red fluorescence (viability) vs pre-drug, coculture with fibroblast (fraction); higher = more viable cancer cells
Protocol: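 JC-1 labelled TNBC cells cocultured 1:1 (1,500 cells each) with CellTrace Violet stained primary or stromal fibroblasts in 384-well plates in FluoroBrite medium, treated with one of 42 anticancer drugs at 0.1, 1, 10 or 100 uM. JC-1 red fluorescence (mitochondrial integrity in cancer cells only) was read by plate reader every 8 h for 72 h. Values are normalised to each well's pre-drug value. The stock of one drug was tenfold lower, so its dose labels may be too high.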

CS(=O)(=O)CCNCc1ccc(-c2ccc3ncnc(Nc4ccc(OCc5cccc(F)c5)c(Cl)c4)c3c2)o1 [Lapatinib]
relative JC-1 red fluorescence
Conditions | 8 h | 16 h | 24 h | 32 h | 40 h | 48 h | 56 h | 64 h | 72 h
0.1 µM, coculture fibroblast: C12385 | 0.7716 | 0.7579 | 0.6606 | 0.6628 | 0.612 | 0.582 | 0.537 | 0.528 | 0.505
0.1 µM, coculture fibroblast: H6013 | 0.893 | 0.838 | 0.7765 | 0.766 | 0.7274 | 0.684 | 0.673 | 0.644 | 0.606
0.1 µM, coculture fibroblast: H6019 | 0.796 | 0.743 | 0.751 | 0.746 | 0.719 | 0.708 | 0.667 | 0.67 | 0.637
0.1 µM, coculture fibroblast: H6076 | 0.9211 | 0.826 | 0.779 | 0.7604 | 0.729 | 0.695 | 0.667 | 0.648 | 0.629
0.1 µM, coculture fibroblast: H6231 | 0.9722 | 0.89 | 0.802 | 0.734 | 0.687 | 0.646 | 0.603 | 0.579 | 0.546
0.1 µM, coculture fibroblast: HADF | 0.93 | 0.924 | 0.862 | 0.843 | 0.802 | 0.73 | 0.725 | 0.708 | 0.665
0.1 µM, coculture fibroblast: HCFa | 0.907 | 0.847 | 0.815 | 0.787 | 0.754 | 0.713 | 0.684 | 0.668 | 0.625
0.1 µM, coculture fibroblast: HCPF | 0.927 | 0.831 | 0.76 | 0.733 | 0.672 | 0.628 | 0.582 | 0.548 | 0.521
0.1 µM, coculture fibroblast: HHSteC | 0.92359 | 0.8955 | 0.851 | 0.817 | 0.76 | 0.722 | 0.6767 | 0.6527 | 0.615
0.1 µM, coculture fibroblast: HMF | 0.895 | 0.8241 | 0.771 | 0.742 | 0.69 | 0.665 | 0.62 | 0.611 | 0.59
0.1 µM, coculture fibroblast: HPFa | 0.9419 | 0.905 | 0.8402 | 0.7898 | 0.7664 | 0.7225 | 0.6729 | 0.6431 | 0.5918
0.1 µM, coculture fibroblast: HUF | 0.8389 | 0.751 | 0.7523 | 0.6491 | 0.597 | 0.582 | 0.529 | 0.516 | 0.493
0.1 µM, coculture fibroblast: Hs5 | 0.936 | 0.87 | 0.807 | 0.766 | 0.714 | 0.652 | 0.604 | 0.568 | 0.528
0.1 µM, coculture fibroblast: Hs27A | 0.8678 | 0.8206 | 0.781 | 0.766 | 0.719 | 0.645 | 0.657 | 0.632 | 0.587
0.1 µM, coculture fibroblast: Hs343T | 0.884 | 0.779 | 0.699 | 0.665 | 0.609 | 0.556 | 0.503 | 0.474 | 0.446
0.1 µM, coculture fibroblast: WS1 | 0.7558 | 0.7272 | 0.632 | 0.621 | 0.582 | 0.5517 | 0.508 | 0.499 | 0.469
1 µM, coculture fibroblast: C12385 | 0.812 | 0.7914 | 0.691 | 0.728 | 0.667 | 0.544 | 0.515 | 0.515 | 0.503
1 µM, coculture fibroblast: H6013 | 0.92352 | 0.925 | 0.901 | 0.903 | 0.879 | 0.851 | 0.845 | 0.826 | 0.787
1 µM, coculture fibroblast: H6019 | 0.846 | 0.829 | 0.8109 | 0.796 | 0.7786 | 0.779 | 0.764 | 0.755 | 0.729
1 µM, coculture fibroblast: H6076 | 0.9476 | 0.88 | 0.847 | 0.824 | 0.797 | 0.758 | 0.752 | 0.731 | 0.71
1 µM, coculture fibroblast: H6231 | 0.92853 | 0.8347 | 0.791 | 0.759 | 0.701 | 0.6712 | 0.647 | 0.6247 | 0.585
1 µM, coculture fibroblast: HADF | 0.879 | 0.8633 | 0.8339 | 0.808 | 0.782 | 0.755 | 0.755 | 0.74 | 0.705
1 µM, coculture fibroblast: HCFa | 0.919 | 0.8957 | 0.8763 | 0.854 | 0.838 | 0.8 | 0.789 | 0.759 | 0.719
1 µM, coculture fibroblast: HCPF | 0.928 | 0.8563 | 0.825 | 0.81 | 0.757 | 0.724 | 0.702 | 0.676 | 0.66
1 µM, coculture fibroblast: HHSteC | 0.9313 | 0.924 | 0.898 | 0.864 | 0.837 | 0.8 | 0.762 | 0.737 | 0.705
1 µM, coculture fibroblast: HMF | 0.954 | 0.891 | 0.86 | 0.832 | 0.793 | 0.764 | 0.745 | 0.723 | 0.696
1 µM, coculture fibroblast: HPFa | 0.982 | 0.956 | 0.916 | 0.881 | 0.867 | 0.832 | 0.783 | 0.752 | 0.709
1 µM, coculture fibroblast: HUF | 0.92 | 0.861 | 0.858 | 0.788 | 0.728 | 0.717 | 0.67 | 0.657 | 0.633
1 µM, coculture fibroblast: Hs5 | 0.844 | 0.907 | 0.867 | 0.828 | 0.781 | 0.722 | 0.709 | 0.668 | 0.65
1 µM, coculture fibroblast: Hs27A | 0.9295 | 0.923 | 0.889 | 0.867 | 0.827 | 0.752 | 0.779 | 0.755 | 0.706
1 µM, coculture fibroblast: Hs343T | 0.937 | 0.85 | 0.8142 | 0.7799 | 0.738 | 0.6986 | 0.667 | 0.648 | 0.626
1 µM, coculture fibroblast: WS1 | 0.784 | 0.7843 | 0.648 | 0.699 | 0.66 | 0.623 | 0.583 | 0.564 | 0.537
